This assay concerns the target BirA*/FLAG-tagged AFDN iso1 (l-AFDN) (mouse) (UniProt Q9QZQ1). Description: proximity labelling; BioID in HeLa Flp-In T-REx cells with BirA*/FLAG-AFDN baits; 24 h with 1 μg/ml tetracycline and 50 µM biotin; streptavidin-sepharose purification, mass spectrometry, SAINTexpress FDR ≤ 0.01.

Sequences of proteins named here, by UniProt entry; tags and fusion partners are left off.
UniProt Q9QZQ1: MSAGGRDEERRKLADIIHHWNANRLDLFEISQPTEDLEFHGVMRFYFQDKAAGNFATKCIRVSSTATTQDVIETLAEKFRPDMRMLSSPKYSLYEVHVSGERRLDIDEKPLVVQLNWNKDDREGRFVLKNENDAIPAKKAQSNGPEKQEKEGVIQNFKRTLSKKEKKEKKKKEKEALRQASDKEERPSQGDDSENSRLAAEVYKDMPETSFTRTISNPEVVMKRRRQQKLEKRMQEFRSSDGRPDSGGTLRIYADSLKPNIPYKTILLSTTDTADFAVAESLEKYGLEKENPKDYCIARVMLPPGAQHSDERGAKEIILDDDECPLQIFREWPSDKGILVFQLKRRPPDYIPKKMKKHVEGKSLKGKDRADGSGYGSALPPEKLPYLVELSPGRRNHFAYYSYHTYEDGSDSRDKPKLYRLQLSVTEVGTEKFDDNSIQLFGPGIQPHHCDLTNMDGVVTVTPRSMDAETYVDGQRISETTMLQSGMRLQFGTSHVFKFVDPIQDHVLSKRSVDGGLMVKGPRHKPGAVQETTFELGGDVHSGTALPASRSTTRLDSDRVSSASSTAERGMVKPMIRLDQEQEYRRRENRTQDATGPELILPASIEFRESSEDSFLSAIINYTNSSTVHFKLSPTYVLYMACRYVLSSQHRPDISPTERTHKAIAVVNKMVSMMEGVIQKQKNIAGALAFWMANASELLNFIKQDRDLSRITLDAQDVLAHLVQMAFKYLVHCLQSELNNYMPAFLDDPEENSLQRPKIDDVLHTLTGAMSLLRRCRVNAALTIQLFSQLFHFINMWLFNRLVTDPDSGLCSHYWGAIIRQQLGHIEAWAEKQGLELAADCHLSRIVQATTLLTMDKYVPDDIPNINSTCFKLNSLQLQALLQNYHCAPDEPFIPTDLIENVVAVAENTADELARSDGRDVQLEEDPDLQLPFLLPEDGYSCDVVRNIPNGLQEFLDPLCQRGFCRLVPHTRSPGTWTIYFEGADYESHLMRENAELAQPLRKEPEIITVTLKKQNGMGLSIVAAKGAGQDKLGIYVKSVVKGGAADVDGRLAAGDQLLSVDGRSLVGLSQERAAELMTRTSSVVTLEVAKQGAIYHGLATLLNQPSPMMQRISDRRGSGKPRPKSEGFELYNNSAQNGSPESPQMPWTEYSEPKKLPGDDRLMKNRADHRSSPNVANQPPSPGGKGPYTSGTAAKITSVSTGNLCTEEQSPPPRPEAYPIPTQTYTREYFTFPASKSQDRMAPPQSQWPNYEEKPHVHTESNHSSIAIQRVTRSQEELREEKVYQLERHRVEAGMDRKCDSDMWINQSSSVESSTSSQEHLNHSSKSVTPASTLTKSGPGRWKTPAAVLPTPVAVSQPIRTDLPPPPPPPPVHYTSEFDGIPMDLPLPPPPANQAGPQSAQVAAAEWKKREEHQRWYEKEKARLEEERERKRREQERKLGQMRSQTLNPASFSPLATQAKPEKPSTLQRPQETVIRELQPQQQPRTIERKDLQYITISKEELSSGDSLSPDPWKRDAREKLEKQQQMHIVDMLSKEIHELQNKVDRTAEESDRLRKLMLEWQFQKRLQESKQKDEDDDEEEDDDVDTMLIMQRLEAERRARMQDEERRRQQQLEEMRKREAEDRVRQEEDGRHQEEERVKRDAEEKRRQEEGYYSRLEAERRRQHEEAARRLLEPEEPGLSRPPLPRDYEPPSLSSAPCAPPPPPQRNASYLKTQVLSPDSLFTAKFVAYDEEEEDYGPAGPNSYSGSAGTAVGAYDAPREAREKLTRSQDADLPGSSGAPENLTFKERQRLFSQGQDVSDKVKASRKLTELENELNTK
UniProt Q8TDM6: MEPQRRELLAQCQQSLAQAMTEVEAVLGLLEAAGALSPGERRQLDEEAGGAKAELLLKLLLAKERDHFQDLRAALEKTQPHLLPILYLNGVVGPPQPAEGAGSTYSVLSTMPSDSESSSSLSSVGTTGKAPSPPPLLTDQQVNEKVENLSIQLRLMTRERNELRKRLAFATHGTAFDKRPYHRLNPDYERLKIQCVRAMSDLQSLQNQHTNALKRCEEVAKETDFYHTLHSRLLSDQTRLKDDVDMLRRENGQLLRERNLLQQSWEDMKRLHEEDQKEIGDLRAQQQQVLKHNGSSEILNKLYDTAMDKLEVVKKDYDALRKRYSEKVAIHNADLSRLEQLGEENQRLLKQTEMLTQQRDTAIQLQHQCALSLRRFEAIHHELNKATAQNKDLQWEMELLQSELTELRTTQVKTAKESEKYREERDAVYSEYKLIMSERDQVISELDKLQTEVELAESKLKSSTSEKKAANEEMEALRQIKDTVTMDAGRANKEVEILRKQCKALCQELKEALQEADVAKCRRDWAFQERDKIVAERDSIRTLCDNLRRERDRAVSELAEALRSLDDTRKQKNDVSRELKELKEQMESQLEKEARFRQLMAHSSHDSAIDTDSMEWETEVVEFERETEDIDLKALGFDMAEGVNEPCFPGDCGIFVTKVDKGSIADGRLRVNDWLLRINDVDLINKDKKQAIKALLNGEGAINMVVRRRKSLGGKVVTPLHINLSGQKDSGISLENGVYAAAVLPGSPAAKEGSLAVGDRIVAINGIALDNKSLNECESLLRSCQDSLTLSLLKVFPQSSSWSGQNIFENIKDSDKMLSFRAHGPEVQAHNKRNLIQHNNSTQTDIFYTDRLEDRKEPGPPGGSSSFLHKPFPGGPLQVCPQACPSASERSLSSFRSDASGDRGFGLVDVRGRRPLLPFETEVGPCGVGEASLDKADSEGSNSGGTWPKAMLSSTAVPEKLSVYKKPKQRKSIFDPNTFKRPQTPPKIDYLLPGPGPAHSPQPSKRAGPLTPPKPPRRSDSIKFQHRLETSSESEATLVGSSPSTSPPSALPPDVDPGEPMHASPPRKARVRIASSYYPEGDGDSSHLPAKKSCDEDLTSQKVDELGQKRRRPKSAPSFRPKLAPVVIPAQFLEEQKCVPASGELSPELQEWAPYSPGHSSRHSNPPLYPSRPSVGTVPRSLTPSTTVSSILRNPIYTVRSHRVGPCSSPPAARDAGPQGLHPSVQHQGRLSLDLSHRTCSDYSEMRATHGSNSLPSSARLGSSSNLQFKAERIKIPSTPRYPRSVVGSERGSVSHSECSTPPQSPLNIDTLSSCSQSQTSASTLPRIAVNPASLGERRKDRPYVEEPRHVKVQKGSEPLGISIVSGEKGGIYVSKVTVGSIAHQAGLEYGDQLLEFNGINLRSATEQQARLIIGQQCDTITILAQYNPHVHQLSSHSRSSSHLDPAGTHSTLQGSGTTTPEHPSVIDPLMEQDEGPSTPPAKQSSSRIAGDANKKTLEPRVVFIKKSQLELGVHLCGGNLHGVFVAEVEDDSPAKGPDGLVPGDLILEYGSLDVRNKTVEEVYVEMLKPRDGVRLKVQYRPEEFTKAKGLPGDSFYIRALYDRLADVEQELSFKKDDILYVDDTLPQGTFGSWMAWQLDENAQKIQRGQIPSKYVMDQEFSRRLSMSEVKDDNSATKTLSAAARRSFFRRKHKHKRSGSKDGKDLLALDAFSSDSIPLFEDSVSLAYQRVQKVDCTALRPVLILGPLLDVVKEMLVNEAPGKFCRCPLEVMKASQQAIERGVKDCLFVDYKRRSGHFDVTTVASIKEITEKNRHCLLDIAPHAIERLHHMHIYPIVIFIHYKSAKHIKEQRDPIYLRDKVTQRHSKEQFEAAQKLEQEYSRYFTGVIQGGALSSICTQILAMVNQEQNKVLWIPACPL
UniProt Q14160: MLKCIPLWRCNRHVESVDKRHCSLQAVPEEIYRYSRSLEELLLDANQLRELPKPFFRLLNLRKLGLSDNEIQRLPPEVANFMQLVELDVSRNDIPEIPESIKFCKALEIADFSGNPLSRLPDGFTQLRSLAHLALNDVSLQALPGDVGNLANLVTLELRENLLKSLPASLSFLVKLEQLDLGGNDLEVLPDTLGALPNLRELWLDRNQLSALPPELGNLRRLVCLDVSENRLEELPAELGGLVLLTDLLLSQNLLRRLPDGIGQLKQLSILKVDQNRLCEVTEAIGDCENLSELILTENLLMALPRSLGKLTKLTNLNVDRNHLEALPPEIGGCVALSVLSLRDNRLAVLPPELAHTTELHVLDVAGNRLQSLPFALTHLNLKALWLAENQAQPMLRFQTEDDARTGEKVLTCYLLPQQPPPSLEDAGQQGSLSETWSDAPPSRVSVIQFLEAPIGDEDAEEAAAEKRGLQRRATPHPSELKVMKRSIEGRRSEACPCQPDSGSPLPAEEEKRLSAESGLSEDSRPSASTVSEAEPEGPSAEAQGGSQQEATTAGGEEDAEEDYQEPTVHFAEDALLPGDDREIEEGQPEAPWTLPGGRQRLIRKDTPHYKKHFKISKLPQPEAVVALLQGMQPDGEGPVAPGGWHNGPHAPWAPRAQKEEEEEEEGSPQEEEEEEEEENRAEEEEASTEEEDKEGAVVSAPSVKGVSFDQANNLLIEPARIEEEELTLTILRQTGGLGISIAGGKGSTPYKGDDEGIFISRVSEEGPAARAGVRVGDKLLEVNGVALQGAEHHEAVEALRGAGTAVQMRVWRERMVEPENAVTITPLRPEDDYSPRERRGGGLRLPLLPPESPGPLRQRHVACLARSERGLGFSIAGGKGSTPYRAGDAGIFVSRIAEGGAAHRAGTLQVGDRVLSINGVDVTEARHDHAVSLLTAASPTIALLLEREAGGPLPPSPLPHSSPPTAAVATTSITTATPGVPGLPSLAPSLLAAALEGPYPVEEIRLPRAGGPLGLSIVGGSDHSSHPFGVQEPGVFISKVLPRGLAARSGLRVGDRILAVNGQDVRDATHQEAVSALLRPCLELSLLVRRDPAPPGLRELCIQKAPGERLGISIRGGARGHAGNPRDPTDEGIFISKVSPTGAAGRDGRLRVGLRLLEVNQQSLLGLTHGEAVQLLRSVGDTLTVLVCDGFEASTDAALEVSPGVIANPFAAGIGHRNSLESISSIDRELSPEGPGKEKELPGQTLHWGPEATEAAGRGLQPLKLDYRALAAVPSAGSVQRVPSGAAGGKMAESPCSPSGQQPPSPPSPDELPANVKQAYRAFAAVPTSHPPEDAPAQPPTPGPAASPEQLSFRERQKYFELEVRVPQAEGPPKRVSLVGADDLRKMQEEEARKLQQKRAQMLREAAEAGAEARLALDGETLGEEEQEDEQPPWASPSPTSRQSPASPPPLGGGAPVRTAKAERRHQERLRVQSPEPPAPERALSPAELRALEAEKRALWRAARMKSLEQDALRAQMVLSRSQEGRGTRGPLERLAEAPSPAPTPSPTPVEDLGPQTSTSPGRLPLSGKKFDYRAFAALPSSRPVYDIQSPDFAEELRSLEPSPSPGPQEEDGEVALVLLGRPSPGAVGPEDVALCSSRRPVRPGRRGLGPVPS

Results are given in words; binding and its absence hold for the method and conditions named. In cells and extracts the contact can be indirect. A yes stands for co-enrichment or nearness to the bait. Other partners may have been found.

In the case of “Discs Large Homolog 5 (DLG5), BioID prey (from UniProt Q8TDM6 1-1919)”, the binding result is reported as “binds”.
Next, “endogenous SCRIB of HeLa cells (BioID prey) (from UniProt Q14160 1-1655)”: “binds”.

These data come from PMC9355967.
